Data published in PubChem BioAssay AID2685 (National Center for Advancing Translational Sciences (NCATS), 2010).
The list shows a part of the results. These are further read-outs of the screen, such as a control signal, another cell line or another target. No call is given for them. Compounds called inactive in the main read-out are mostly missing here. Words in brackets tell the shape of the fitted curve; partial curves, single points and poor fits give uncertain potencies.

Test: qHTS Assay for Lipid Storage Modulators in Drosophila S3 Cells;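 for cell number change: cells counted by Cell Tracker Red CMTPX staining in the red channel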
Conditions: BODIPY lipid droplet fluorescence, 18-24 h; for cell number change: measured here: cell count max response, cells fed with added oleic acid
How it was run: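 Drosophila S3 cells loaded with oleic acid (400 uM, as added) and compounds at several concentrations; lipid droplets imaged by 488-nm laser-scanning cytometry, 500–530 nm intensity and object ratio to cell channel. Percent activity normalized to 20 uM Triacsin C.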

[1] = measured here: lipid fluorescence (Fed channel) AC50, cells fed with added oleic acid
[2] = measured here: cell number channel AC50, cells fed with added oleic acid

SMILES	cell number change [%]	AC50 [1]	AC50 [2]
O=C(CN1CCc2ccccc21)NN1CC(=O)N(c2ccc(Cl)cc2)CC1=O	1.71	0.103 µM [falling, full curve, poor fit]	
O=C1c2ccsc2SCCN1Cc1ccc(Cl)cc1	18.7	1.3 µM [falling, full curve]	
O=C1CCN(Cc2ccccc2)CCN1CCSc1ccccc1	21.7	10.3 µM [rising, partial curve]	
COc1ccc(CCCC(=O)N/N=C/c2ccccc2OC)cc1	5.6		0.651 µM [falling, single point]
CCN1CCN(c2ccc([N+](=O)[O-])cc2S(=O)(=O)N2CCOCC2)CC1	-7.71	0.259 µM [falling, full curve]	0.731 µM [falling, partial curve]
CCCNC(=O)c1ccccc1NC(=O)Cc1ccc(OC)c(S(=O)(=O)N2CCOCC2)c1	15.5		
CO/N=C/CC(=O)c1cnc(-c2ccc(Cl)cc2)s1	5.56	2.06 µM [rising, partial curve, poor fit]	
O=C(Nc1nc(-c2ccc(-c3ccccc3)cc2)cs1)C1=COCCO1	-13.6	11.6 µM [falling, partial curve, poor fit]	
CC(=O)c1c(C)[nH]c(C(=O)NCCc2ccc(Cl)cc2)c1C		6.51 µM [rising, single point]	0.103 µM [rising, single point]
O=C(NCCO)C(=O)Nc1cc2c3c(c1)CCC(=O)N3CCC2	-58.1	6.51 µM [falling, partial curve]	16.4 µM [falling, single point]
CC/C(C)=N\Nc1nc(-c2cc3cc(OC)ccc3oc2=O)cs1	1.94		2.06 µM [rising, partial curve, poor fit]
CC(C)NC(=O)C1CCN(C2CCN(C(=O)c3cc4c(s3)CCCCC4)CC2)CC1	-44.6	5.8 µM [falling, full curve]	5.17 µM [falling, full curve, poor fit]
CC(C)CN(CCNC(=O)CN1C(=O)COc2ccc(S(=O)(=O)N3CCOCC3)cc21)CC(C)C	-21.3		
CC(C)(C)C(=O)Nc1ccccc1C(=O)NCc1cccnc1	13.5	0.00651 µM [rising, full curve, poor fit]	
Cc1ccc(C)c(N(CC(=O)NCCSCc2ccco2)S(C)(=O)=O)c1	-3.74		
COC(=O)c1cc(S(=O)(=O)N2CCN(c3cccc(C)c3)C(C)C2)c[nH]1 (configuration not stated)	24.8	0.731 µM [rising, single point]	
COC(=O)Nc1ccc(S(=O)(=O)n2cnc3ccccc32)cc1	2.68		
Cc1ccc(N=C(NOCc2ccc(Cl)cc2Cl)c2nonc2N)c(C)c1	4.16	14.6 µM [falling, partial curve]	3.66 µM [rising, single point]
N#C/C(=C\c1cccc(OC(=O)c2cccs2)c1)C(N)=O	-64.2	29.1 µM [falling, single point]	20.6 µM [falling, single point]
COCCOC1CCN(C(=O)C2CCC(=O)N(CCc3ccc(OC)cc3)C2)CC1 (configuration not stated)		1.46 µM [falling, partial curve, poor fit]	
CCOC(=O)c1cc(NC(=O)c2ccoc2C)cc(C(=O)OCC)c1		0.731 µM [rising, full curve]	0.461 µM [rising, full curve]

SMILES	cell number change [%]	AC50 [1]	AC50 [2]
O=C(Nc1ccc(N2CCCCC2)c(Cl)c1)c1cccnc1	-21.5	32.6 µM [falling, single point]	
COc1ccc(CN2CC(=O)N(c3ccc(C)c(C)c3)C2=S)cc1OC	27	9.2 µM [rising, partial curve, poor fit]	
O=C(/C=C/c1cccs1)Nc1ccc(N2CCOCC2)c(S(=O)(=O)Nc2ccccc2Cl)c1	7.81	18.4 µM [rising, single point]	
CCC(C)(C)C1CCc2[nH]nc(C(=O)O)c2C1 (configuration not stated)	-39	0.58 µM [falling, full curve, poor fit]	25.9 µM [falling, single point]
CCS(=O)(=O)N1CCN(S(=O)(=O)c2ccc3c(c2)OCCO3)CC1	2.99	6.51 µM [rising, single point]	
CCCCC(=O)Nc1c(C)cc(C)cc1Cl	22.4		
O=C(O)CSc1nnc(-c2ccncc2)n1Cc1ccccc1	31.8	6.51 µM [rising, partial curve, poor fit]	10.3 µM [rising, partial curve, poor fit]
CC(=O)N1c2ccc(S(=O)(=O)N3CCCCC3)cc2CC1C(=O)NCc1ccccc1C (configuration not stated)	-2.83	5.17 µM [rising, single point]	
CC(C)(C)C(=O)N=C1SC2CS(=O)(=O)CC2N1c1ccc2c(c1)OCO2 (configuration not stated)		4.11 µM [falling, partial curve]	
COc1ccc(N(CC(=O)Nc2ccccc2C(=O)N2CCOCC2)S(=O)(=O)c2ccc(F)cc2)cc1		16.4 µM [falling, single point]	
COc1cc(CN2CCN(Cc3ccc(C(F)(F)F)cc3)CC2)cc(OC)c1OC	-2.55		
O=Nc1c2ccc[nH]c-2c2ccc([N+](=O)[O-])cc12	4.81		
CCn1c2ccccc2c2nnc(SCC(=O)NC3CCS(=O)(=O)C3)nc21 (configuration not stated)		2.31 µM [rising, partial curve]	
O=C1NC(=O)C2(CCC(C(=O)O)C2)N1 (configuration not stated)	31.1	29.1 µM [rising, single point]	29.1 µM [rising, single point]
Cc1ccc(S(=O)(=O)NCC(C)n2nc(C)nc2C)cc1 (configuration not stated)	2.99	2.59 µM [rising, full curve]	
CC(C)c1ccc(N2C(=O)C3C4C=CC(CC4)C3C2=O)cc1 (configuration not stated)	33.4		
O=C(/C=C/c1ccccc1[N+](=O)[O-])NC1CCCC1	-46		
COc1cccc(CC(=O)NC2CCCN(Cc3ccccc3F)C2)c1 (configuration not stated)	5.69		
Cn1cc(/C=C/C(=O)c2ccccc2)c2ccccc21		2.59 µM [rising, partial curve]	
O=C(c1cc(-c2ccco2)on1)N1CCN(C(c2ccccc2)c2ccccc2)CC1	-6.8	14.6 µM [falling, single point]	
CC(=O)c1ccc(N2CCN(C(=O)c3cn(Cc4ccccc4)nc3-c3cccnc3)CC2)c(F)c1	14.5		

One compound at a time, as listed above.
O=C(/C=C/c1cccs1)Nc1ccc(N2CCOCC2)c(S(=O)(=O)Nc2ccccc2Cl)c1 is entered as cell number change [%]: 7.81; AC50 [1]: 18.4 µM [rising, single point]
CC(C)(C)C(=O)N=C1SC2CS(=O)(=O)CC2N1c1ccc2c(c1)OCO2 (configuration not stated) is entered as AC50 [1]: 4.11 µM [falling, partial curve]
CC(C)(C)C(=O)Nc1ccccc1C(=O)NCc1cccnc1 is entered as cell number change [%]: 13.5; AC50 [1]: 0.00651 µM [rising, full curve, poor fit]
COc1ccc(CCCC(=O)N/N=C/c2ccccc2OC)cc1 is entered as cell number change [%]: 5.6; AC50 [2]: 0.651 µM [falling, single point]

(continued)

SMILES	cell number change [%]	AC50 [1]	AC50 [2]
COc1cccc(CN(C)C(=O)CCN(c2ccccc2)S(=O)(=O)c2ccc(C)cc2)c1OC	-20.8	20.6 µM [falling, single point]	
Cn1c2ccccc2n2c(=O)c(=O)n(CC(=O)c3ccc(F)cc3)nc12	-0.227	2.91 µM [rising, partial curve, poor fit]	
OCCNc1cc(-n2nc(-c3ccccc3)cc2-c2ccccc2)ncn1	-20.7	6.51 µM [falling, single point]	
COc1ccc(NC(=O)CN(C)C(=O)CCC2CCCC2)cc1	1.62	29.1 µM [rising, single point]	
CC(C)CCOC(=O)C1C(c2ccccc2)C(C(=O)O)C1c1ccccc1 (configuration not stated)	9.37		
O=C(CSc1nc2ccccc2n1CC(=O)N1CCOCC1)N1CCCC1	-21.4	23.1 µM [falling, single point]	
CC(C)(C)N1C(=O)Cc2c1nc(N)c1c(N)nc(N3CCCCC3CO)c(C#N)c21 (configuration not stated)	17.5		
Cc1nc2ccccn2c1C(=O)CSc1cccc(Cl)c1	-29.4		
CN(c1ccccc1)S(=O)(=O)c1cccc(NC(=O)COC(=O)C2CCCCC2)c1	17.4		
CC(C)C(NC(=O)c1ccc(C(C)(C)C)cc1)C(=O)NCc1ccccn1 (configuration not stated)	-20.2	0.116 µM [falling, full curve, poor fit]	0.146 µM [falling, full curve, poor fit]
CCOC(=O)c1c(C)[nH]c(C)c1C(=O)COC(=O)c1ccc([N+](=O)[O-])s1	-35.2	11.6 µM [falling, partial curve]	13 µM [falling, single point]
CCc1ccc(C(=O)NNC(=O)c2c(CC)noc2C)cc1		0.517 µM [rising, single point]	
Cc1ccc(CNC(=O)CN2C(=O)NC(C)(c3ccc(Cl)cc3)C2=O)cc1 (configuration not stated)			6.51 µM [rising, single point]
Oc1ccc(NCc2ccccc2OCc2ccccc2F)cc1	-24.7	29.1 µM [rising, single point]	
Cc1ccc(CN(C(=O)COc2ccc(Br)cc2)C2CCS(=O)(=O)C2)o1 (configuration not stated)	14.1		
CC(/C=N/NC(=O)c1cc(-c2ccc(C)s2)[nH]n1)=C\c1ccccc1	-40.2	29.1 µM [falling, single point]	29.1 µM [falling, single point]
Cc1ccc(OCCCCn2cnc3ccccc32)c(C)c1	-69.3	18.4 µM [falling, partial curve]	18.4 µM [falling, partial curve]
CCOc1ccc(S(=O)(=O)/N=C(/c2ccccc2)N(C)C)cc1	19.6	14.6 µM [rising, single point]	
CCOC(=O)c1sc(NC(C)=O)c(C(=O)OCC)c1C	10.2		
COC(=O)c1ccccc1NC(=O)c1ccc(-c2ccc(Br)cc2)o1		3.26 µM [rising, partial curve]	2.06 µM [rising, partial curve]
